Test results reported in doi:10.1101/2025.04.14.648762.
No constants are given. Whether binding was seen depends on the method and setting. A result given as binding can be weak or reduced; the word gives no strength.

Sequences of proteins named here, by UniProt entry; tags and fusion partners are left off. A change or cut given only in a name is not applied to a line headed by its entry.
UniProt P25098: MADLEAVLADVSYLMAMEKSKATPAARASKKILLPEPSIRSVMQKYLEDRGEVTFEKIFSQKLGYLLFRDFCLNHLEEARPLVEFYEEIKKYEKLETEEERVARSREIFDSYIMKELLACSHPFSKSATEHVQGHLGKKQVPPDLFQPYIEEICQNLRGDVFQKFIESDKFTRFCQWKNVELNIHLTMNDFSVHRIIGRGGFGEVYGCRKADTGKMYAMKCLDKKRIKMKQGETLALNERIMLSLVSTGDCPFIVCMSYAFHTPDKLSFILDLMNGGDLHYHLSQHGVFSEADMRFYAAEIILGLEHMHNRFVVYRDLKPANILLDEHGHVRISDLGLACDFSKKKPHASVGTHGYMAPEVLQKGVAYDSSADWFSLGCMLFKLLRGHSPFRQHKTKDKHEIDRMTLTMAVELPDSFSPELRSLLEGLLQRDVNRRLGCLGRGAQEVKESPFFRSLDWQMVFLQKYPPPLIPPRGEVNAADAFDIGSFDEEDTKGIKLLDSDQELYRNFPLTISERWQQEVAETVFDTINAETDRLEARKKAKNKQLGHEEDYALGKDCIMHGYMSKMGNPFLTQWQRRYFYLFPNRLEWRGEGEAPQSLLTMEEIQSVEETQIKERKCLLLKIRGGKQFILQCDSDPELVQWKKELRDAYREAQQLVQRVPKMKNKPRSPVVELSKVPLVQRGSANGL
UniProt Q8TCU6: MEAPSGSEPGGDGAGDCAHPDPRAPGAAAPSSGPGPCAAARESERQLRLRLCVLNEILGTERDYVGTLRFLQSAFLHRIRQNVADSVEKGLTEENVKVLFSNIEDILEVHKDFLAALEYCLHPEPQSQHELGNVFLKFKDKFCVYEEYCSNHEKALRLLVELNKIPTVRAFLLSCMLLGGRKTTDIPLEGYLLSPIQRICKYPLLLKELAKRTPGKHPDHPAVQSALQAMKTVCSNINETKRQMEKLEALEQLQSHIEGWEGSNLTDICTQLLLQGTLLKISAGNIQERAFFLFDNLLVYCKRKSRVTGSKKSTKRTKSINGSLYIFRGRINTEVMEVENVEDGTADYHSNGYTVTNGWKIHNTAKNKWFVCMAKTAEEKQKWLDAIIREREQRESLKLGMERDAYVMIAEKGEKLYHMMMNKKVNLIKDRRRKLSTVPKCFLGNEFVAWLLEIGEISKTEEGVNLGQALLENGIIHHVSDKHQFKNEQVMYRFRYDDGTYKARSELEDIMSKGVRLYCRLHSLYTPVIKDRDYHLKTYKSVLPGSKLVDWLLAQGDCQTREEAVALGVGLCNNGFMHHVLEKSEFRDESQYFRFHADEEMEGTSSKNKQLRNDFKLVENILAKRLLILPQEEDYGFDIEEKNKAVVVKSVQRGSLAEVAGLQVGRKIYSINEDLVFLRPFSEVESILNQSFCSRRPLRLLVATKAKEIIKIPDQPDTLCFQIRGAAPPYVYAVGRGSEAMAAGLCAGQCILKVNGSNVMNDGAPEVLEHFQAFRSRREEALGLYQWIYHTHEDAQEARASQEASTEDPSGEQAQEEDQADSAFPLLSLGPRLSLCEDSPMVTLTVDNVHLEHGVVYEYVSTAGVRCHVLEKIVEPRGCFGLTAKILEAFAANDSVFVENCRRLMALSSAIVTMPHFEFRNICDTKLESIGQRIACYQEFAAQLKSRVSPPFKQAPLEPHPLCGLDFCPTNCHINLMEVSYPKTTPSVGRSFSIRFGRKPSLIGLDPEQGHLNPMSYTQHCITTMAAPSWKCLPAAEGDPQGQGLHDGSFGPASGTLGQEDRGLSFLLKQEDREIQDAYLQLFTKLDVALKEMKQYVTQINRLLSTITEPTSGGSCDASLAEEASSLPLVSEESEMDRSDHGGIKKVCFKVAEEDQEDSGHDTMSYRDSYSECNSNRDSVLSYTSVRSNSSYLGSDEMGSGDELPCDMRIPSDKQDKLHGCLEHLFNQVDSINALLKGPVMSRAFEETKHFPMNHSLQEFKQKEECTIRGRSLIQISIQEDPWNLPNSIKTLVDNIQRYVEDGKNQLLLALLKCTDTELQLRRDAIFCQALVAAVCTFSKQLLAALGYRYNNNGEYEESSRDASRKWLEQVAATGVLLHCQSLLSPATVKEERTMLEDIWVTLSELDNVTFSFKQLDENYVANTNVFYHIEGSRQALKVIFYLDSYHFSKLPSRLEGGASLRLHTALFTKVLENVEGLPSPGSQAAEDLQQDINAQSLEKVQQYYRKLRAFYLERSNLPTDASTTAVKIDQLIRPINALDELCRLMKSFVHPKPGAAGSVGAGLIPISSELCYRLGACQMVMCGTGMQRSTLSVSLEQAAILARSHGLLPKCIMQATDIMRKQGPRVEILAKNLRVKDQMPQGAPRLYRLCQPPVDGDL

Target: GST-Grk2 (human) (UniProt P25098)
Experiment: pull-down

Substance | binding
EE-P-Rex1 ΔPDZ (from UniProt Q8TCU6) | binds
EE-P-Rex1 ΔPH (from UniProt Q8TCU6) | binds
